{
  "source": "patent US20180214442A1",
  "about": "“METHODS FOR ATTENUATING OR PREVENTING MU(μ)-OPIOID RECEPTOR MEDIATED TOLERANCE AND OPIOID-INDUCED […]” (The Board of Trustees of the Leland Stanford Junior …, priority 2017, published 2018)",
  "system": "spinal microglia",
  "note": "Where two headings read alike, the source gives them in different places.",
  "data": [
    {"smiles": "CN1CC[C@]23c4c5ccc(O)c4O[C@H]2[C@@H](O)C=C[C@H]3[C@H]1C5.O=S(=O)(O)O", "note": "[morphine, Morphine sulfate]", "values": [
      {"measurement": "microglial activation (CD11b density)", "setting": "global MOR KO mice, twice daily escalating 10 to 40 mg/kg schedule", "result": "considerable microglial activation"},
      {"measurement": "microglial activation (CD11b density)", "setting": "wild-type mice, chronic morphine, fixed 10 mg/kg or escalating 10 to 40 mg/kg", "result": "robust microglial activation"}
    ]}
  ]
}
